Data as given in publication doi:10.1101/2025.01.02.631137.
These are yes or no findings as the source states them, for the method shown. Binding seen in cells or lysates may run through a third protein. Some binding calls cover weakened binding; strength is not graded here. For some assays here: Sequences can lack the tags named with a protein. One block for each binder: values may come before it.

Assays:
[1] = biological target: T1, AtJAC1-mVenus^C (BiFC) (A. thaliana) (UniProt O04309); assay: split reporter
T1 sequence: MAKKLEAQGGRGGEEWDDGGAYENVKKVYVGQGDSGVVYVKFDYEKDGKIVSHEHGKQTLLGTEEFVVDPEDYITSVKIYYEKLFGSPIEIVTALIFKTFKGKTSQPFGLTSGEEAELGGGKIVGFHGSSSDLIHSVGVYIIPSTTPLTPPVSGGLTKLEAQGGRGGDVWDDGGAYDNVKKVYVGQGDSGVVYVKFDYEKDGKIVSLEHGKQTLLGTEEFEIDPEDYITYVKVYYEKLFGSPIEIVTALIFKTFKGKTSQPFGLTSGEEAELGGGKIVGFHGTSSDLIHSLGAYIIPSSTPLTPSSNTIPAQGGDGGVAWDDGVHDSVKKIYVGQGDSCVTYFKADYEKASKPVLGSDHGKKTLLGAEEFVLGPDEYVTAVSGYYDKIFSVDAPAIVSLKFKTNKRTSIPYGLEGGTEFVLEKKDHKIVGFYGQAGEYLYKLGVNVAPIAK

[2] = biological target: T2, ssGFP-bGLU25 (GFP between the signal peptide and the remainder of bGLU25) (A. thaliana) (UniProt O82772); assay: co-IP
T2 sequence: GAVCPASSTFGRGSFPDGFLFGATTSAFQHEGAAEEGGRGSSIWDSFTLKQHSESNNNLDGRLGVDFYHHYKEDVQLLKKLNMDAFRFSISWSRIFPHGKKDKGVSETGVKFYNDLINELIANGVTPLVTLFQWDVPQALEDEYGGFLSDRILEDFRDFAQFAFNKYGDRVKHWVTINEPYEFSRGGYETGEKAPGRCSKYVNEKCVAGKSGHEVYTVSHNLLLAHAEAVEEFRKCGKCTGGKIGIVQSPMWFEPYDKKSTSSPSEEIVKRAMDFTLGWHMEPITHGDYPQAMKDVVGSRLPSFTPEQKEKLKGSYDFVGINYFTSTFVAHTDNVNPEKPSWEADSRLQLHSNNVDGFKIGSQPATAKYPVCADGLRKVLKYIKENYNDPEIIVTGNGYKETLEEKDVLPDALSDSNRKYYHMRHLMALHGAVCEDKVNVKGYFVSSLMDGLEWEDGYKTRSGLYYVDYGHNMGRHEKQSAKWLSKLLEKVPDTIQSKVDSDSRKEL

[3] = biological target: T3, ΔbGLU25-GFP (A. thaliana) (UniProt O82772); assay: co-IP
T3 sequence: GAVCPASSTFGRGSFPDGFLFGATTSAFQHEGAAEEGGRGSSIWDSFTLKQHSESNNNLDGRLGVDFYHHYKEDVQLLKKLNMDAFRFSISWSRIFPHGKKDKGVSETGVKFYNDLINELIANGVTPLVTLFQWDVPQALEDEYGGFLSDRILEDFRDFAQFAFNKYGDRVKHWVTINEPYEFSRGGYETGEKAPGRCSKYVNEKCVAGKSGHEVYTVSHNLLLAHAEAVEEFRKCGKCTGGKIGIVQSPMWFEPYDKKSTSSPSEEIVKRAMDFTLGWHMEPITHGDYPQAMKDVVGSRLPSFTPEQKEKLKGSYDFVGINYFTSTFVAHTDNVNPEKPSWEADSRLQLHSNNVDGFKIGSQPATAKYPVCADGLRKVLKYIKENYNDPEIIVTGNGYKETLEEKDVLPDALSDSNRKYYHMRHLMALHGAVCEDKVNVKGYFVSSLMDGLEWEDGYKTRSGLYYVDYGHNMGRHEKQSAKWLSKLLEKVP

[4] = biological target: T4, bGLU25 fused to a split mVenus half (BiFC) (A. thaliana) (UniProt O82772); assay: split reporter
T4 sequence: T2 sequence

[5] = biological target: T5, ΔbGLU25 fused to a split mVenus half (BiFC) (A. thaliana) (UniProt O82772); assay: split reporter
T5 sequence: T3 sequence

binding [1]: binds
B1: GLYCINE-RICH RNA-BINDING PROTEIN 7 (GRP7)-mVenus^N (BiFC) (protein, UniProt Q03250 1-176)
chain: MASGDVEYRCFVGGLAWATDDRALETAFAQYGDVIDSKIINDRETGRSRGFGFVTFKDEKAMKDAIEGMNGQDLDGRSITVNEAQSRGSGGGGGHRGGGGGGYRSGGGGGYSGGGGSYGGGGGRREGGGGYSGGGGGYSSRGGGGGSYGGGRREGGGGYGGGEGGGYGGSGGGGGW

binding [2]: binds
binding [3]: binds
B2: AtJAC1-HA (protein, UniProt O04309 1-451)
chain: T1 sequence

binding [4]: binds
binding [5]: binds
B3: AtJAC1-mVenus^C (BiFC) (protein, UniProt O04309 1-451)
chain: T1 sequence
